No constants are given. Whether binding was seen depends on the method and setting. Binding seen in cells or lysates may run through a third protein. Some results given as binding are weak or reduced against the parent protein; the word gives no strength.
What was measured:
[1] = molecular target: Homeobox A5 (HOXA5) (human (endogenous in patient-derived BTSCs)) (UniProt P20719); experiment: co-IP
[2] = molecular target: Homeobox A5 (HOXA5) (human (endogenous in patient-derived BTSCs)) (UniProt P20719); experiment: proximity ligation

Amino acid sequences for entries named in this document (tags omitted).
UniProt P20719: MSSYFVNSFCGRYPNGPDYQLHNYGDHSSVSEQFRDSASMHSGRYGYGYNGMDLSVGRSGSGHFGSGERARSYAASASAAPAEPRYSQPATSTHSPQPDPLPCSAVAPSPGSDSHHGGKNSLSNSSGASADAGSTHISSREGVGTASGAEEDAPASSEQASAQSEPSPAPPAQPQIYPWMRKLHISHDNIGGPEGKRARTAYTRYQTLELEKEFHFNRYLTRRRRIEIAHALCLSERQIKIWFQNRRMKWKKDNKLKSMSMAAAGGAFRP
UniProt P09382: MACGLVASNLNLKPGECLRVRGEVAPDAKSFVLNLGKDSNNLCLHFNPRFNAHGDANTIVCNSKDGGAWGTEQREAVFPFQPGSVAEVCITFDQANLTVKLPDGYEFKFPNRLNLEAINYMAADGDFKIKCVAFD

Substance: galectin1 (from UniProt P09382 1-135)
- binding [1]: binds
- binding [2]: binds
